Laboratory results published in paper doi:10.1101/717041.
No constants are given. Whether binding was seen depends on the method and setting. In cells and extracts the contact can be indirect. Some entries that bind do so weakly or less than the wild type. For some of these results: Tags and fused reporters may be left off the sequences shown. One block for each substance: values may come before it.

Chains of the proteins cited; added tags and fusions are not shown.
UniProt Q8TEW0: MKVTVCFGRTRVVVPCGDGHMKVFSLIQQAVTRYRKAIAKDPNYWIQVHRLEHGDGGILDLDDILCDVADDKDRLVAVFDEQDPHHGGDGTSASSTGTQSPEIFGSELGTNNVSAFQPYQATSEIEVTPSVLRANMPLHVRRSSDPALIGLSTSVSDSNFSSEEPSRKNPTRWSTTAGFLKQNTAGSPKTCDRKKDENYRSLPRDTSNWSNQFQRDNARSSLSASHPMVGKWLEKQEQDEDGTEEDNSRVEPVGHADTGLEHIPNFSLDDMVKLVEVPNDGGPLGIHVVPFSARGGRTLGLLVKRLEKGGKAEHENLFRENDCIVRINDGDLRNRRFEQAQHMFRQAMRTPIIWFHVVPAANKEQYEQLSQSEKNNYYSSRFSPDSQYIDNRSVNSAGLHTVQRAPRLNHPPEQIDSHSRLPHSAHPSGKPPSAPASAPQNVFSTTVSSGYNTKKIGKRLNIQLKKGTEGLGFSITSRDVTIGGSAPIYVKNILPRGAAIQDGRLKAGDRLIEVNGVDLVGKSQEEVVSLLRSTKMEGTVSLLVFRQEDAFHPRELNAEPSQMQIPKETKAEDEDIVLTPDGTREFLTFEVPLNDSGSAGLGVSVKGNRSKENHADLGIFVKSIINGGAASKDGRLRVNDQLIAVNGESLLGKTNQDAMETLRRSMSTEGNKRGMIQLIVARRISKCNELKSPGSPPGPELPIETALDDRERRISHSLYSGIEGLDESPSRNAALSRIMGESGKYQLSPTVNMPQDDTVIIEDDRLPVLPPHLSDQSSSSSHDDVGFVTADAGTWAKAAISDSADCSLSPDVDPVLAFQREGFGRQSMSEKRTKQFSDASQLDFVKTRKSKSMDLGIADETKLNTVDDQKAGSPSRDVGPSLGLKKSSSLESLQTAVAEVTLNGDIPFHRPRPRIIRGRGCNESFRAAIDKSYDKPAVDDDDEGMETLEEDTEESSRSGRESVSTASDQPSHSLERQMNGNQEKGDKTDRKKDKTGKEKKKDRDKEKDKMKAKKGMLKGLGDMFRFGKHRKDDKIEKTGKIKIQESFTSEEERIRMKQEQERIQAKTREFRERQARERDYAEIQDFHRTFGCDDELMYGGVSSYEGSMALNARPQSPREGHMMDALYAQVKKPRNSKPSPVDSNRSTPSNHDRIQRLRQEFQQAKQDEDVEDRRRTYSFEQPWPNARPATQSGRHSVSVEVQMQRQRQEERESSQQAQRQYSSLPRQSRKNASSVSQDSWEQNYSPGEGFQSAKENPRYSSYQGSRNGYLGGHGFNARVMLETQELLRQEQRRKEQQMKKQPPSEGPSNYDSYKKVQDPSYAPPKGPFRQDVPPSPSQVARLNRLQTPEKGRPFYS

How the values were obtained:
FLAG-PARD3-full length = FLAG-PARD3-full length (UniProt Q8TEW0); experiment: co-IP
GST-Daple-CT = target: T1, GST-Daple-CT (UniProt Q9P219); experiment: pull-down
T1 sequence: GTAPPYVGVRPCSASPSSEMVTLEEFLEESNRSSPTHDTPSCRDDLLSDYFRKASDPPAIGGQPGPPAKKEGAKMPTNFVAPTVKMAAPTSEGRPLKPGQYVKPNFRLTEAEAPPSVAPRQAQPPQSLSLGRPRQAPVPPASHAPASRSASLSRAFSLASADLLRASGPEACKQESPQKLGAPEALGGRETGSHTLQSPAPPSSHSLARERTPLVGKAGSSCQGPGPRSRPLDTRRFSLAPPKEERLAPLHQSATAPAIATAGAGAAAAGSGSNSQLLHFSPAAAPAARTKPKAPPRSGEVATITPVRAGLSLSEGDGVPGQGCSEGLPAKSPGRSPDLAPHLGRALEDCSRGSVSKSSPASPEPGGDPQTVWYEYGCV

GST-Daple-PBM E2024A = target: T2, GST-Daple-PBM E2024A (UniProt Q9P219); experiment: pull-down
T2 sequence: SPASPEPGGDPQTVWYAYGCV

GST-Daple-PBM E2024K = target: T3, GST-Daple-PBM E2024K (UniProt Q9P219); experiment: pull-down
T3 sequence: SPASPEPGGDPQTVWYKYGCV

[1] = target: T4, GST-tagged Daple-PBM (aa 2008-2028) (UniProt Q9P219); experiment: pull-down
T4 sequence: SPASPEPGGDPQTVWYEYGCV

[2] = target: T5, GST-tagged Daple-PBM (aa 2008-2028) Y2023/2025E (UniProt Q9P219); experiment: pull-down
T5 sequence: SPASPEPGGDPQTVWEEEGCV

[3] = target: T6, GST-tagged Daple-PBM (aa 2008-2028) Y2023E (UniProt Q9P219); experiment: pull-down
T6 sequence: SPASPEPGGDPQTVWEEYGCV

[4] = target: T7, GST-tagged Daple-PBM (aa 2008-2028) Y2025E (UniProt Q9P219); experiment: pull-down
T7 sequence: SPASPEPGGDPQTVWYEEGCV

binding (FLAG-PARD3-full length): binds
Substance: Daple-FA (F1675A) (from UniProt Q9P219 1-2028)

binding (FLAG-PARD3-full length): no binding
Substance: Daple-Y2023/2025E (from UniProt Q9P219 1-2028)

binding (GST-Daple-CT): binds
binding (GST-Daple-PBM E2024A): no binding
binding (GST-Daple-PBM E2024K): no binding
binding [1]: binds
binding [2]: no binding
binding [3]: binds
binding [4]: binds
Substance: FLAG-PARD3-full length (from UniProt Q8TEW0 1-1356)

binding (FLAG-PARD3-full length): binds
Substance: full length Daple-WT (myc-Daple) (from UniProt Q9P219 1-2028)
